Binding data for one molecule are collected here from PMC12187842, “A novel molecule targeting neutrophil-mediated B-1a cell trogocytosis attenuates sepsis-induced acute lung injury” (Frontiers in Immunology, 2025).

The target of the test is T1, recombinant mouse (rm)Siglec-G (mouse, UniProt Q80ZE3 18-543).
T1 construct: Siglec-G, mouse, recombinant; UniProt Q80ZE3 is printed for the in silico model; check the vendor's data sheet; source: bought: R&D Systems (Cat. No. 10103-SL-050)
T1 sequence (looked up): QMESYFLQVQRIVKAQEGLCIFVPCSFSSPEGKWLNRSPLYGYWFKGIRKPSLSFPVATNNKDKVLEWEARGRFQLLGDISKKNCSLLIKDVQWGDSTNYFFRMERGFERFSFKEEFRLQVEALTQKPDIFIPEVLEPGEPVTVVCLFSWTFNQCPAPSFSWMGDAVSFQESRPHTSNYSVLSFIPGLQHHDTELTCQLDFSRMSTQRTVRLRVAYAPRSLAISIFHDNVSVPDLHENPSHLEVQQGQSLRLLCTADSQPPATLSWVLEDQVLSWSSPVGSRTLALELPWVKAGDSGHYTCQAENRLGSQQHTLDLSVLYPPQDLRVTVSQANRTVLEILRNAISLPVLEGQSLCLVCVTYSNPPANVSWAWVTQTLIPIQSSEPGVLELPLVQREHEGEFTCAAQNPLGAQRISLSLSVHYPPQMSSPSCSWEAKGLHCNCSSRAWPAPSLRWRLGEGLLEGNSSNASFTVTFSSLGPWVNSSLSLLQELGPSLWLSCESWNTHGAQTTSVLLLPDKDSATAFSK
Nature of the test: SPR; same setting as a1 (rmCD47 immobilised on HS-carboxyl sensor); peptide C11 at 1 µM preincubated for 30 minutes with rmSiglec-G at 100, 250 and 500 nM, then injected; both purified. For orientation: SPR reads the build-up and loss of mass on a sensor chip optically.

No constants are given. Whether binding was seen depends on the method and setting. Some binding calls cover weakened binding; strength is not graded here.

For ELKNRTVSWFS [Compound 11 (C11)], the binding entry was “binds”.
